{
  "source": "PubChem BioAssay AID274",
  "about": "(DTP/NCI, 2004)",
  "tested_on": "BDF1 mice, Lewis lung carcinoma iv, survival T/C",
  "test": "NCI In Vivo Anticancer Drug Screen. Data for tumor model Lewis Lung Carcinoma (intravenous) in B6D2F1 (BDF1) mice",
  "conditions": "T/C endpoint: median survival time, higher T/C = longer survival",
  "description": "The antitumor activity of compounds was measured in mice bearing transplantable tumors. Survival or tumor size were measured and the results are expressed as the measurement made in the treated group (T) divided by the measurement made in the vehicle treated control group (C). The tumor model used in this assay is Lewis Lung Carcinoma (intravenous) in B6D2F1 (BDF1) mice",
  "key": {"[1]": {"conditions": "dose: 50.0 mg/kg/injection, schedule: Q01DX009 (ip), vehicle: saline"}, "[2]": {"conditions": "dose: 100.0 mg/kg/injection, schedule: Q01DX009 (ip), vehicle: saline"}, "[3]": {"conditions": "dose: 200.0 mg/kg/injection, schedule: Q01DX009 (ip), vehicle: saline"}, "[4]": {"conditions": "dose: 400.0 mg/kg/injection, schedule: Q01DX009 (ip), vehicle: saline"}, "[5]": {"conditions": "dose: 12.5 mg/kg/injection, schedule: Q01DX009 (ip), vehicle: Klucel (hydroxypropylcellulose) (HPC)"}, "[6]": {"conditions": "dose: 25.0 mg/kg/injection, schedule: Q01DX009 (ip), vehicle: Klucel (hydroxypropylcellulose) (HPC)"}},
  "note": "The list shows only some results of the screen, not a fair sample: it gathers tests that were run many times, whatever their T/C, doses with no T/C, and many T/C values between a quarter and a half above the control. Further doses and runs are listed elsewhere. T/C is the treated group as % of the vehicle group. Some doses have a count of surviving animals in place of a T/C: the source files T/C as zero there, which appears to mark a toxic dose or a test without result, not a measured value. Some doses without a T/C left all or most animals alive at the check, yet need not have been tolerated: the source hardly ever lists a survival T/C far under the control, and the zero likely stands for such cases as well. Counts of survivors are from the toxicity check (mostly the fifth day) where no day follows; animals may have died later. Schedule codes are those of the source, read here as Q, the interval in days (D) or hours (H), X, the number of doses. Brackets with × give the number of equal values in this list. Where survival is the endpoint, this PubChem deposit counts one and a half times the control or more as active, and values a quarter to a half above the control carry no call in these data; other NCI protocols may use other cut-offs. Some doses were run more than once; the values are given in rising order.",
  "data": [
    {"smiles": "O=C1C=C(C2OC(CO)C(O)C2O)C(=O)N1", "note": "(stereo unspecified)", "values": [
      {"measurement": "survivor count", "setting": "dose: 0.13 mg/kg/injection, schedule: Q01DX009 (ip), vehicle: saline", "result": "10 of 10"},
      {"measurement": "survivor count", "setting": "dose: 0.25 mg/kg/injection, schedule: Q01DX009 (ip), vehicle: saline", "result": "10 of 10"},
      {"measurement": "survivor count", "setting": "dose: 0.5 mg/kg/injection, schedule: Q01DX009 (ip), vehicle: saline", "result": "10 of 10"}
    ]},
    {"smiles": "O=C(CCN1CC1)Nc1cccc(NC(=O)CCN2CC2)c1", "values": [
      {"measurement": "survivor count", "setting": "dose: 20.0 mg/kg/injection, schedule: Q01DX009 (ip), vehicle: saline with Tween-80", "result": "4 of 10"},
      {"measurement": "survivor count", "setting": "dose: 40.0 mg/kg/injection, schedule: Q01DX009 (ip), vehicle: saline with Tween-80", "result": "2 of 10"}
    ]},
    {"smiles": "COC1OC(CO)C(O)C(NC(=O)N(C)N=O)C1O", "note": "(stereo unspecified)", "values": [
      {"measurement": "T/C", "setting": "[1]", "result": "128 and 133 % of control"},
      {"measurement": "T/C", "setting": "[2]", "result": "138 % of control"},
      {"measurement": "T/C", "setting": "[3]", "result": "142 % of control"},
      {"measurement": "survivor count", "setting": "[4]", "result": "10 of 10 (2×)"}
    ]},
    {"smiles": "Cc1ccccc1N(CC1CO1)CC1CO1", "note": "(stereo unspecified)", "values": [
      {"measurement": "survivor count", "setting": "[4]", "result": "5 of 10"}
    ]},
    {"smiles": "CCc1cc(C(N)=S)ccn1", "values": [
      {"measurement": "survivor count", "setting": "dose: 210.0 mg/kg/injection, schedule: Q01DX007 (ip), vehicle: Klucel (hydroxypropylcellulose) (HPC)", "result": "10 of 10"}
    ]},
    {"smiles": "Nc1nc(=S)c2ncn(C3OC(COC(=O)c4ccc(Cl)cc4)C(OC(=O)c4ccc(Cl)cc4)C3OC(=O)c3ccc(Cl)cc3)c2[nH]1", "note": "(stereo unspecified)", "values": [
      {"measurement": "T/C", "setting": "dose: 75.0 mg/kg/injection, schedule: Q01DX009 (ip), vehicle: Klucel (hydroxypropylcellulose) (HPC)", "result": "125 % of control"}
    ]},
    {"smiles": "CNC=O", "values": [
      {"measurement": "survivor count", "setting": "dose: 800.0 mg/kg/injection, schedule: Q01DX009 (ip), vehicle: saline sonified", "result": "10 of 10"},
      {"measurement": "survivor count", "setting": "dose: 1600.0 mg/kg/injection, schedule: Q01DX009 (ip), vehicle: saline sonified", "result": "9 of 10"},
      {"measurement": "survivor count", "setting": "dose: 3200.0 mg/kg/injection, schedule: Q01DX009 (ip), vehicle: saline sonified", "result": "0 of 10"}
    ]},
    {"smiles": "O=C1c2ccccc2C(=O)N1CCC[P+](c1ccccc1)(c1ccccc1)c1ccccc1", "values": [
      {"measurement": "survivor count", "setting": "dose: 1.56 mg/kg/injection, schedule: Q01DX009 (ip), vehicle: Klucel (hydroxypropylcellulose) (HPC)", "result": "10 of 10"},
      {"measurement": "survivor count", "setting": "dose: 3.12 mg/kg/injection, schedule: Q01DX009 (ip), vehicle: Klucel (hydroxypropylcellulose) (HPC)", "result": "10 of 10"},
      {"measurement": "survivor count", "setting": "dose: 6.25 mg/kg/injection, schedule: Q01DX009 (ip), vehicle: Klucel (hydroxypropylcellulose) (HPC)", "result": "10 of 10"},
      {"measurement": "survivor count", "setting": "[5]", "result": "10 of 10"},
      {"measurement": "survivor count", "setting": "[6]", "result": "10 of 10"}
    ]},
    {"smiles": "[N-]=[N+]=CC(=O)CCC(N)C(=O)O", "note": "(stereo unspecified)", "values": [
      {"measurement": "T/C", "setting": "dose: 0.2 mg/kg/injection, schedule: Q01DX009 (ip), vehicle: saline", "result": "128 % of control"},
      {"measurement": "survivor count", "setting": "dose: 0.39 mg/kg/injection, schedule: Q01DX009 (ip), vehicle: saline", "result": "10 of 10"},
      {"measurement": "survivor count", "setting": "dose: 0.78 mg/kg/injection, schedule: Q01DX009 (ip), vehicle: saline", "result": "10 of 10"},
      {"measurement": "survivor count", "setting": "dose: 1.56 mg/kg/injection, schedule: Q01DX009 (ip), vehicle: saline", "result": "10 of 10"},
      {"measurement": "survivor count", "setting": "dose: 3.13 mg/kg/injection, schedule: Q01DX009 (ip), vehicle: saline", "result": "8 of 10"}
    ]},
    {"smiles": "CN(C)CC(Cl)CCl", "note": "(stereo unspecified)", "values": [
      {"measurement": "survivor count", "setting": "[1]", "result": "10 of 10"},
      {"measurement": "survivor count", "setting": "[2]", "result": "10 of 10"},
      {"measurement": "survivor count", "setting": "[3]", "result": "7 of 7"},
      {"measurement": "survivor count", "setting": "[4]", "result": "0 of 10"}
    ]},
    {"smiles": "CC(C)n1cnc2c(Cl)ncnc21", "values": [
      {"measurement": "T/C", "setting": "dose: 100.0 mg/kg/injection, schedule: Q01DX009 (ip), vehicle: saline with Tween-80", "result": "130 % of control"}
    ]},
    {"smiles": "CCCC(=O)OCC1OC(n2cnc3c(=S)nc(N)[nH]c32)C(OC(=O)CCC)C1OC(=O)CCC", "note": "(stereo unspecified)", "values": [
      {"measurement": "survivor count", "setting": "[5]", "result": "10 of 10"},
      {"measurement": "survivor count", "setting": "[6]", "result": "10 of 10"},
      {"measurement": "survivor count", "setting": "dose: 50.0 mg/kg/injection, schedule: Q01DX009 (ip), vehicle: Klucel (hydroxypropylcellulose) (HPC)", "result": "10 of 10"},
      {"measurement": "survivor count", "setting": "dose: 100.0 mg/kg/injection, schedule: Q01DX009 (ip), vehicle: Klucel (hydroxypropylcellulose) (HPC)", "result": "10 of 10"}
    ]},
    {"smiles": "NC(=O)c1ncn(C2OC(CO)C(O)C2O)n1", "note": "(stereo unspecified)", "values": [
      {"measurement": "survivor count", "setting": "dose: 320.0 mg/kg/injection, schedule: Q01DX009 (ip), vehicle: saline", "result": "10 of 10"}
    ]},
    {"smiles": "Nc1ncnc2c1cnn2Cc1ccc(Cl)cc1", "values": [
      {"measurement": "T/C", "setting": "dose: 50.0 mg/kg/injection, schedule: Q01DX009 (ip), vehicle: saline with Tween-80", "result": "130 % of control"},
      {"measurement": "survivor count", "setting": "[3]", "result": "9 of 10"}
    ]},
    {"smiles": "CNc1cccnc1/C=N/NC(N)=S", "values": [
      {"measurement": "survivor count", "setting": "dose: 200.0 mg/kg/injection, schedule: Q01DX009 (ip), vehicle: saline with Tween-80", "result": "9 of 9"},
      {"measurement": "survivor count", "setting": "dose: 400.0 mg/kg/injection, schedule: Q01DX009 (ip), vehicle: saline with Tween-80", "result": "6 of 10"}
    ]},
    {"smiles": "N=C(N)c1ccc(/C=C/c2ccc(C(=N)N)cc2O)cc1", "values": [
      {"measurement": "survivor count", "setting": "dose: 100.0 mg/kg/injection, schedule: Q01DX009 (ip), vehicle: water", "result": "1 of 10"}
    ]},
    {"smiles": "CC(=O)c1c(O)c(C)c(O)c2c1OC1=CC(=O)C(C(C)=O)C(=O)C12C", "note": "(stereo unspecified)", "values": [
      {"measurement": "survivor count", "setting": "dose: 12.5 mg/kg/injection, schedule: Q01DX009 (ip), vehicle: gum acacia", "result": "10 of 10"},
      {"measurement": "survivor count", "setting": "dose: 25.0 mg/kg/injection, schedule: Q01DX009 (ip), vehicle: gum acacia", "result": "10 of 10"},
      {"measurement": "survivor count", "setting": "dose: 100.0 mg/kg/injection, schedule: Q01DX009 (ip), vehicle: gum acacia", "result": "10 of 10"},
      {"measurement": "survivor count", "setting": "dose: 200.0 mg/kg/injection, schedule: Q01DX009 (ip), vehicle: gum acacia", "result": "10 of 10"}
    ]},
    {"smiles": "c1cn[nH]c1", "values": [
      {"measurement": "survivor count", "setting": "[2]", "result": "10 of 10"}
    ]},
    {"smiles": "Cc1c2cc[n+](CCN3CCCCC3)cc2c(C)c2c1[nH]c1ccc(O)cc12", "values": [
      {"measurement": "survivor count", "setting": "dose: 50.0 mg/kg/injection, schedule: Q01DX009 (ip), vehicle: suspension in saline", "result": "10 of 10"}
    ]}
  ]
}
